# Assay results reported in the supplement of paper PMC8728848.
# The list shows a part of the results.
# How the values were obtained:
# Assay in all cases: glycan array binding signal (z-score within array); higher = stronger binding
# Settings in all cases: glycan notation: IUPAC condensed, linker removed
# Fuc(a1-2)Gal = target: Fuc(a1-2)Gal
# Summary of the method: (§1)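 Arrays were curated from the Consortium for Functional Glycomics database, 3228 in total, and kept only where the protein sequence was available. Binding is expressed as a within-array Z-score. This score was averaged across arrays of the same protein sequence at different concentrations or buffers and across linkers, and negative values can be read as non-binding.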
# Fuc(a1-2)Gal(b1-3)GalNAc = target: Fuc(a1-2)Gal(b1-3)GalNAc
# Summary of the method: as §1
# [1] = target: Fuc(a1-2)Gal(b1-3)GalNAc(a1-3)[Fuc(a1-2)]Gal(b1-4)Glc
# Summary of the method: as §1
# [2] = target: Fuc(a1-2)Gal(b1-3)GalNAc(a1-3)[Fuc(a1-2)]Gal(b1-4)GlcNAc
# Summary of the method: as §1
# [3] = target: Fuc(a1-2)Gal(b1-3)GalNAc(b1-3)Gal
# Summary of the method: as §1
# [4] = target: Fuc(a1-2)Gal(b1-3)GalNAc(b1-3)Gal(a1-4)Gal(b1-4)Glc
# Summary of the method: as §1
# [5] = target: Fuc(a1-2)Gal(b1-3)GalNAc(b1-4)[Neu5Ac(a2-3)]Gal(b1-4)Glc
# Summary of the method: as §1
# Fuc(a1-2)Gal(b1-3)GlcNAc = target: Fuc(a1-2)Gal(b1-3)GlcNAc
# Summary of the method: as §1
# [6] = target: Fuc(a1-2)Gal(b1-3)GlcNAc(b1-2)Man(a1-3)[Fuc(a1-2)Gal(b1-3)GlcNAc(b1-2)Man(a1-6)]Man(b1-4)GlcNAc(b1-4)GlcNAc
# Summary of the method: as §1
# [7] = target: Fuc(a1-2)Gal(b1-3)GlcNAc(b1-2)Man(a1-3)[Fuc(a1-2)Gal(b1-3)GlcNAc(b1-2)Man(a1-6)]Man(b1-4)GlcNAc(b1-4)[Fuc(a1-6)]GlcNAc
# Summary of the method: as §1
# [8] = target: Fuc(a1-2)Gal(b1-3)GlcNAc(b1-3)Gal(b1-4)Glc
# Summary of the method: as §1
# [9] = target: Fuc(a1-2)Gal(b1-3)GlcNAc(b1-3)GalNAc
# Summary of the method: as §1
# [10] = target: Fuc(a1-2)Gal(b1-3)GlcNAc(b1-3)[Fuc(a1-2)Gal(b1-3)GlcNAc(b1-6)]GalNAc
# Summary of the method: as §1
# [11] = target: Fuc(a1-2)Gal(b1-3)GlcNAc(b1-3)[Gal(b1-4)GlcNAc(b1-6)]Gal(b1-4)Glc
# Summary of the method: as §1
# [12] = target: Fuc(a1-2)Gal(b1-3)GlcNAc(b1-3)[Neu5Ac(a2-6)Gal(b1-4)GlcNAc(b1-6)]Gal(b1-4)Glc
# Summary of the method: as §1
# [13] = target: Fuc(a1-2)Gal(b1-3)GlcNAc6S
# Summary of the method: as §1
# [14] = target: Fuc(a1-2)Gal(b1-3)[Fuc(a1-4)]GlcNAc
# Summary of the method: as §1
# [15] = target: Fuc(a1-2)Gal(b1-3)[Fuc(a1-4)]GlcNAc(b1-2)Man(a1-3)[Fuc(a1-2)Gal(b1-3)[Fuc(a1-4)]GlcNAc(b1-2)Man(a1-3)]Man(b1-4)GlcNAc(b1-4)GlcNAc
# Summary of the method: as §1
# [16] = target: Fuc(a1-2)Gal(b1-3)[Fuc(a1-4)]GlcNAc(b1-2)Man(a1-3)[Fuc(a1-2)Gal(b1-3)[Fuc(a1-4)]GlcNAc(b1-2)Man(a1-6)]Man(b1-4)GlcNAc(b1-4)[Fuc(a1-6)]GlcNAc(b1-4)[Fuc(a1-6)]GlcNAc
# Summary of the method: as §1
# [17] = target: Fuc(a1-2)Gal(b1-3)[Fuc(a1-4)]GlcNAc(b1-3)[Fuc(a1-3)[Gal(b1-4)]GlcNAc(b1-6)]Gal(b1-4)Glc
# Summary of the method: as §1
# [18] = target: Fuc(a1-2)Gal(b1-3)[Fuc(a1-4)]GlcNAc(b1-3)[Gal(b1-4)GlcNAc(b1-6)]Gal(b1-4)Glc
# Summary of the method: as §1
# Fuc(a1-2)Gal(b1-4)Glc = target: Fuc(a1-2)Gal(b1-4)Glc
# Summary of the method: as §1
# Fuc(a1-2)Gal(b1-4)Glc6S = target: Fuc(a1-2)Gal(b1-4)Glc6S
# Summary of the method: as §1
# Fuc(a1-2)Gal(b1-4)GlcNAc = target: Fuc(a1-2)Gal(b1-4)GlcNAc
# Summary of the method: as §1
# [19] = target: Fuc(a1-2)Gal(b1-4)GlcNAc(b1-2)Man
# Summary of the method: as §1
# [20] = target: Fuc(a1-2)Gal(b1-4)GlcNAc(b1-2)Man(a1-3)[Fuc(a1-2)Gal(b1-4)GlcNAc(b1-2)Man(a1-6)]Man(b1-4)GlcNAc(b1-4)GlcNAc
# Summary of the method: as §1
# [21] = target: Fuc(a1-2)Gal(b1-4)GlcNAc(b1-2)Man(a1-3)[Fuc(a1-2)Gal(b1-4)GlcNAc(b1-2)Man(a1-6)]Man(b1-4)GlcNAc(b1-4)[Fuc(a1-6)]GlcNAc
# Summary of the method: as §1
# [22] = target: Fuc(a1-2)Gal(b1-4)GlcNAc(b1-2)[Fuc(a1-2)Gal(b1-4)GlcNAc(b1-4)]Man(a1-3)[Fuc(a1-2)Gal(b1-4)GlcNAc(b1-2)Man(a1-6)]Man(b1-4)GlcNAc(b1-4)GlcNAc
# Summary of the method: as §1
# [23] = target: Fuc(a1-2)Gal(b1-4)GlcNAc(b1-3)Gal(b1-4)GlcNAc
# Summary of the method: as §1
# [24] = target: Fuc(a1-2)Gal(b1-4)GlcNAc(b1-3)Gal(b1-4)GlcNAc(b1-2)Man(a1-3)[Fuc(a1-2)Gal(b1-4)GlcNAc(b1-3)Gal(b1-4)GlcNAc(b1-2)Man(a1-6)]Man(b1-4)GlcNAc(b1-4)GlcNAc
# Summary of the method: as §1
# [25] = target: Fuc(a1-2)Gal(b1-4)GlcNAc(b1-3)Gal(b1-4)GlcNAc(b1-3)Gal(b1-4)GlcNAc
# Summary of the method: as §1
# [26] = target: Fuc(a1-2)Gal(b1-4)GlcNAc(b1-3)GalNAc
# Summary of the method: as §1
# [27] = target: Fuc(a1-2)Gal(b1-4)GlcNAc(b1-3)[Fuc(a1-2)Gal(b1-4)GlcNAc(b1-6)]GalNAc
# Summary of the method: as §1
# [28] = target: Fuc(a1-2)Gal(b1-4)GlcNAc(b1-3)[Fuc(a1-3)[Gal(b1-4)]GlcNAc(b1-6)]Gal(b1-4)Glc
# Summary of the method: as §1
# [29] = target: Fuc(a1-2)Gal(b1-4)GlcNAc(b1-6)GalNAc
# Summary of the method: as §1
# [30] = target: Fuc(a1-2)Gal(b1-4)GlcNAc6S
# Summary of the method: as §1
# [31] = target: Fuc(a1-2)Gal(b1-4)[Fuc(a1-3)]GlcNAc
# Summary of the method: as §1
binder,measurement,setting,value
Loc1 (Escherichia coli) (protein) APCALTNVGEQRGTYILKPLSMKGNLTAEKIENTGNIIECTDLQETTNAIKVHFLTQNALKFKVGSRHYIINFPFEYDGKKIELPGKSSYNLEEMLSAINFTIPYSIASVSDSSNTADIFPGTPFPLLFEIEVSSCTGNNTNCNSVRFNYNLNTILQVNLMTHHHHHH,glycan array binding signal (z-score),Fuc(a1-2)Gal,0.363
same,glycan array binding signal (z-score),Fuc(a1-2)Gal(b1-3)GalNAc,0.266
same,glycan array binding signal (z-score),[1],0.252
same,glycan array binding signal (z-score),[2],-0.027
same,glycan array binding signal (z-score),[3],-0.56
same,glycan array binding signal (z-score),[4],-0.719
same,glycan array binding signal (z-score),[5],-0.775
same,glycan array binding signal (z-score),Fuc(a1-2)Gal(b1-3)GlcNAc,0.551
same,glycan array binding signal (z-score),[6],-1.09
same,glycan array binding signal (z-score),[7],0.745
same,glycan array binding signal (z-score),[8],-0.688
same,glycan array binding signal (z-score),[9],-0.901
same,glycan array binding signal (z-score),[10],-0.061
same,glycan array binding signal (z-score),[11],-0.082
same,glycan array binding signal (z-score),[12],-0.102
same,glycan array binding signal (z-score),[13],-0.233
same,glycan array binding signal (z-score),[14],-0.727
same,glycan array binding signal (z-score),[15],-0.3
same,glycan array binding signal (z-score),[16],-0.297
same,glycan array binding signal (z-score),[17],0.27
same,glycan array binding signal (z-score),[18],-0.244
same,glycan array binding signal (z-score),Fuc(a1-2)Gal(b1-4)Glc,-0.622
same,glycan array binding signal (z-score),Fuc(a1-2)Gal(b1-4)Glc6S,0.154
same,glycan array binding signal (z-score),Fuc(a1-2)Gal(b1-4)GlcNAc,-0.37
same,glycan array binding signal (z-score),[19],-0.607
same,glycan array binding signal (z-score),[20],-0.36
same,glycan array binding signal (z-score),[21],-0.261
same,glycan array binding signal (z-score),[22],-0.533
same,glycan array binding signal (z-score),[23],0.029
same,glycan array binding signal (z-score),[24],-0.378
same,glycan array binding signal (z-score),[25],-0.362
same,glycan array binding signal (z-score),[26],-0.732
same,glycan array binding signal (z-score),[27],-0.76
same,glycan array binding signal (z-score),[28],-0.522
same,glycan array binding signal (z-score),[29],-0.178
same,glycan array binding signal (z-score),[30],0.269
same,glycan array binding signal (z-score),[31],-0.55

# 2 records drawn at random from the list so far, as already listed:
binder,measurement,setting,value
Loc1 (Escherichia coli) (protein) APCALTNVGEQRGTYILKPLSMKGNLTAEKIENTGNIIECTDLQETTNAIKVHFLTQNALKFKVGSRHYIINFPFEYDGKKIELPGKSSYNLEEMLSAINFTIPYSIASVSDSSNTADIFPGTPFPLLFEIEVSSCTGNNTNCNSVRFNYNLNTILQVNLMTHHHHHH,glycan array binding signal (z-score),[28],-0.522
same,glycan array binding signal (z-score),[15],-0.3
